Source: PubChem BioAssay AID330 (DTP/NCI, 2004)
The list does not hold the whole screen: it is rich in T/C values a quarter to a half above the control, in often repeated tests (any T/C) and in doses without a T/C. Other doses and runs of a compound stand elsewhere. T/C: endpoint of the treated group in % of that of the vehicle group. Some doses have a count of surviving animals in place of a T/C: the source holds a T/C of zero for them, seemingly a mark for toxic or unscored doses. Some survivor counts are full or nearly so, which does not show that the dose was tolerated: the source hardly ever lists a survival T/C far under the control, and the zero likely stands for such cases as well. Counts of survivors are from the toxicity check (mostly the fifth day) where no day follows; animals may have died later. Schedules are NCI's codes, taken here to give the interval after Q, in days (D) or hours (H), and the number of doses after X. Some entries were tested several times; the values are given in rising order. Where survival is the endpoint, the PubChem record calls one and a half times the control and up active, and a quarter to a half above the control has no call in these data; cut-offs in other NCI protocols can differ. Some T/C values are followed by the survivors on the day toxicity was checked, most often the fifth; where none is given, no animal had died by that day.

Test system: P388 leukemia ip, CD2F1 mice, survival T/C
Assay: NCI In Vivo Anticancer Drug Screen. Data for tumor model P388 Leukemia (intraperitoneal) in CD2F1 (CDF1) mice
Conditions: T/C endpoint: median survival time, higher T/C = longer survival
[1] = dose: 400.0 mg/kg/injection, schedule: Q04DX003 (ip), vehicle: saline with Tween-80
[2] = dose: 200.0 mg/kg/injection, schedule: Q01DX005 (ip), vehicle: saline with Tween-80

Which T/C (dose: 2.5 mg/kg/injection, schedule: Q03HX024 (ip), vehicle: water) does the source give for `COc1cc(NCc2ccc3nc(N)nc(N)c3c2C)cc(OC)c1OC` (tested in a mixture with another compound) here?
Its T/C is 144 % of control.

And the T/C (dose: 6.25 mg/kg/injection, schedule: Q03HX008 (sc), vehicle: water)?
The T/C was 127 % of control.

What about the T/C (dose: 6.9 mg/kg/injection, schedule: Q01DX009 (ip), vehicle: water) of the same molecule?
Its T/C is 143 % of control.

What about the T/C (dose: 7.8 mg/kg/injection, schedule: Q03HX008 (ip), vehicle: water) of the same molecule?
The T/C was 137 % of control.

What about the T/C (dose: 12.5 mg/kg/injection, schedule: Q01DX005 (ip), vehicle: water, evaluated on day 30) of the same molecule?
Its T/C is 137 % of control [5 of 6 alive].

And the T/C (dose: 12.5 mg/kg/injection, schedule: Q01DX005 (ip), vehicle: water, evaluated on day 60)?
Its T/C is 140 % of control.

And the T/C (dose: 12.5 mg/kg/injection, schedule: Q01DX005 (iv), vehicle: water)?
The T/C was 131 % of control.

What about the T/C (dose: 12.5 mg/kg/injection, schedule: Q03HX008 (sc), vehicle: water) of the same molecule?
Its T/C is 127 % of control.

And the T/C (dose: 15.6 mg/kg/injection, schedule: Q03HX008 (ip), vehicle: water)?
The T/C was 144 % of control.

What about the T/C (dose: 20.8 mg/kg/injection, schedule: Q04DX003 (ip), vehicle: water) of the same molecule?
Its T/C is 131 % of control.

And the T/C (dose: 25.0 mg/kg/injection, schedule: Q01DX005 (iv), vehicle: water)?
The T/C was 143 % of control.

And the T/C (dose: 25.0 mg/kg/injection, schedule: Q03HX008 (sc), vehicle: water)?
Its T/C is 134 % of control.

And the T/C (dose: 31.2 mg/kg/injection, schedule: Q03HX008 (ip), vehicle: water)?
Its T/C is 133 % of control [8 of 10 alive].

What about the T/C (dose: 41.6 mg/kg/injection, schedule: Q04DX003 (ip), vehicle: water) of the same molecule?
The T/C was 128 % of control.

And the T/C (dose: 50.0 mg/kg/injection, schedule: Q01DX005 (sc), vehicle: water)?
Its T/C is 131 % of control.

And the T/C (dose: 50.0 mg/kg/injection, schedule: Q03HX008 (sc), vehicle: water)?
The T/C was 131 and 147 % of control.

What about the survivor count (dose: 62.0 mg/kg/injection, schedule: Q03HX008 (ip), vehicle: water) of the same molecule?
Its survivor count is 5 of 10.

What about the survivor count (dose: 70.0 mg/kg/injection, schedule: Q01DX001 (iv), vehicle: water) of the same molecule?
Its survivor count is 2 of 10.

What about the T/C (dose: 83.3 mg/kg/injection, schedule: Q04DX003 (ip), vehicle: water) of the same molecule?
The T/C was 138 % of control.

And the survivor count (dose: 85.0 mg/kg/injection, schedule: Q01DX001 (iv), vehicle: water)?
Its survivor count is 0 of 10.

And the survivor count (dose: 100.0 mg/kg/injection, schedule: Q01DX001 (iv), vehicle: water)?
Its survivor count is 0 of 10.

What about the survivor count (dose: 100.0 mg/kg/injection, schedule: Q01DX005 (iv), vehicle: water) of the same molecule?
The survivor count was 0 of 10.

What about the survivor count (dose: 111.1 mg/kg/injection, schedule: Q01DX009 (ip), vehicle: water) of the same molecule?
The survivor count was 5 of 10.

And the survivor count (dose: 120.0 mg/kg/injection, schedule: Q01DX001 (iv), vehicle: water)?
The survivor count was 1 of 10.

What about the survivor count (dose: 125.0 mg/kg/injection, schedule: Q01DX001 (iv), vehicle: water) of the same molecule?
The survivor count was 0 of 10.

What about the survivor count (dose: 125.0 mg/kg/injection, schedule: Q03HX008 (ip), vehicle: water) of the same molecule?
Its survivor count is 0 of 10.

And the survivor count (dose: 166.6 mg/kg/injection, schedule: Q04DX003 (ip), vehicle: water)?
Its survivor count is 0 of 10.

What about the survivor count (dose: 200.0 mg/kg/injection, schedule: Q01DX005 (ip), vehicle: water) of the same molecule?
Its survivor count is 0 of 10 and 3 of 6.

What about the survivor count (dose: 200.0 mg/kg/injection, schedule: Q01DX005 (iv), vehicle: water) of the same molecule?
The survivor count was 0 of 10.

What about the survivor count (dose: 222.2 mg/kg/injection, schedule: Q01DX009 (oral), vehicle: water) of the same molecule?
Its survivor count is 9 of 10.

And the survivor count (dose: 250.0 mg/kg/injection, schedule: Q01DX001 (ip), vehicle: water)?
Its survivor count is 0 of 10.

And the survivor count (dose: 250.0 mg/kg/injection, schedule: Q01DX001 (iv), vehicle: water)?
The survivor count was 0 of 10.

What about the survivor count (dose: 333.3 mg/kg/injection, schedule: Q04DX003 (ip), vehicle: water) of the same molecule?
The survivor count was 0 of 10.

What about the survivor count (dose: 400.0 mg/kg/injection, schedule: Q01DX005 (ip), vehicle: water) of the same molecule?
Its survivor count is 0 of 6.

What about the survivor count (dose: 444.4 mg/kg/injection, schedule: Q01DX009 (oral), vehicle: water) of the same molecule?
The survivor count was 9 of 10.

And the survivor count (dose: 500.0 mg/kg/injection, schedule: Q01DX001 (ip), vehicle: water)?
The survivor count was 0 of 10.

What about the survivor count (dose: 500.0 mg/kg/injection, schedule: Q01DX001 (iv), vehicle: water) of the same molecule?
The survivor count was 0 of 10.

And the survivor count (dose: 1000.0 mg/kg/injection, schedule: Q01DX001 (ip), vehicle: water)?
Its survivor count is 0 of 10.

What about the survivor count (dose: 1000.0 mg/kg/injection, schedule: Q01DX001 (iv), vehicle: water) of the same molecule?
The survivor count was 0 of 10.

For `CN(c1ccccc1)c1cc2c(cc1[N+](=O)[O-])no[n+]2[O-]`, which survivor count (dose: 15.0 mg/kg/injection, schedule: Q01DX009 (ip), vehicle: saline) is on record?
The survivor count was 6 of 6.

And the survivor count (dose: 30.0 mg/kg/injection, schedule: Q01DX009 (ip), vehicle: saline)?
Its survivor count is 5 of 6.

What does the source list for `C=C(Br)C(=NC(C)(C)C)Nc1ccc(Cl)cc1`?
survivor count (dose: 25.0 mg/kg/injection, schedule: Q01DX005 (ip), vehicle: Klucel (hydroxypropylcellulose) (HPC)): 0 of 5; survivor count (dose: 50.0 mg/kg/injection, schedule: Q01DX005 (ip), vehicle: Klucel (hydroxypropylcellulose) (HPC)): 3 of 5; survivor count (dose: 100.0 mg/kg/injection, schedule: Q01DX005 (ip), vehicle: Klucel (hydroxypropylcellulose) (HPC)): 1 of 5; survivor count (dose: 200.0 mg/kg/injection, schedule: Q01DX005 (ip), vehicle: Klucel (hydroxypropylcellulose) (HPC)): 0 of 5

Which survivor count (dose: 200.0 mg/kg/injection, schedule: Q01DX009 (ip), vehicle: saline) does the source give for `CC(C)NCC(O)COc1ccccc1C1CC1` (stereo unspecified) here?
Its survivor count is 0 of 6.

With `CCN(CC)C(=O)CC(c1ccccc1)N(C)C` (stereo unspecified) as the molecule, how does the survivor count (dose: 240.0 mg/kg/injection, schedule: Q01DX005 (ip), vehicle: saline) read?
The survivor count was 1 of 6.

`S=C(Oc1ccccc1)SSC(=S)Oc1ccccc1` was tested. Which survivor count (dose: 200.0 mg/kg/injection, schedule: Q04DX003 (ip), vehicle: DMSO) did it give?
Its survivor count is 0 of 5.

What about the survivor count (dose: 400.0 mg/kg/injection, schedule: Q04DX003 (ip), vehicle: DMSO) of the same molecule?
Its survivor count is 0 of 5.

`CN1c2ccccc2S(=O)(=O)n2c(-c3ccccc3Cl)nnc21` was tested. Which survivor count (dose: 200.0 mg/kg/injection, schedule: Q01DX001 (ip), vehicle: saline with Tween-80) did it give?
Its survivor count is 6 of 6.

For `N#CC1C(=O)NC(=O)C(C#N)C12CCCCC2` (stereo unspecified), which survivor count [1] is on record?
The survivor count was 4 of 6.

How did the survivor count (dose: 400.0 mg/kg/injection, schedule: Q04DX003 (ip), vehicle: Klucel (hydroxypropylcellulose) (HPC)) turn out when `O=P(O)(O)SP(=O)(O)O.[Zn+2]` was run?
Its survivor count is 4 of 6.

Which survivor count (dose: 100.0 mg/kg/injection, schedule: Q01DX005 (ip), vehicle: saline with Tween-80) does the source give for `O=C1OC(c2ccccc2)(c2ccccc2)CC1C=C(c1ccccc1)c1ccccc1` (stereo unspecified) here?
The survivor count was 6 of 6.

And the survivor count [2]?
Its survivor count is 6 of 6.

Which survivor count [1] does the source give for `C=CN=NNc1ccc(C#N)cc1` here?
Its survivor count is 0 of 6.

How did the survivor count (dose: 50.0 mg/kg/injection, schedule: Q01DX009 (ip), vehicle: saline) turn out when `O=[N+]([O-])c1ccc2c(c1)N=Cc1ccccc1NCCNc1ccccc1C=N2` was run?
The survivor count was 6 of 6.

Which survivor count (dose: 400.0 mg/kg/injection, schedule: Q01DX001 (ip), vehicle: Klucel (hydroxypropylcellulose) (HPC)) does the source give for `Cc1nnc2c(N)nccn12` here?
The survivor count was 0 of 6.

For `Oc1cccc(/C=N/N=C/c2cccc(O)c2O)c1O`, which survivor count (dose: 200.0 mg/kg/injection, schedule: Q01DX009 (ip), vehicle: Klucel (hydroxypropylcellulose) (HPC)) is on record?
The survivor count was 6 of 6.

For `CCCC1CCCCN1Cc1ccccc1` (stereo unspecified), which survivor count [2] is on record?
The survivor count was 0 of 6.

Which survivor count (dose: 50.0 mg/kg/injection, schedule: Q01DX009 (ip), vehicle: saline with Tween-80) does the source give for `CCCn1c(O)c(C=N)c(=O)[nH]c1=O` here?
The survivor count was 6 of 6.

Which survivor count [2] does the source give for `Cc1cc(C)c(-c2cc(C(O)C3OC4OC(C)(C)OC4C3O)on2)c(C)c1` (stereo unspecified) here?
The survivor count was 6 of 6.

`CCCCCCCCCCCC1=C(O)C(=O)C(I)=C(O)C1=O` was tested. Which survivor count (dose: 50.0 mg/kg/injection, schedule: Q01DX005 (ip), vehicle: saline with Tween-80) did it give?
Its survivor count is 1 of 6.

And the survivor count [2]?
The survivor count was 0 of 6.

Which survivor count (dose: 60.0 mg/kg/injection, schedule: Q01DX005 (ip), vehicle: saline with Tween-80) does the source give for `O=[N+]([O-])c1ccc2c(c1)C(N1CCN(CCO)CC1)Cc1ccc(F)cc1S2` (stereo unspecified) here?
Its survivor count is 0 of 6.

What about the survivor count (dose: 120.0 mg/kg/injection, schedule: Q01DX005 (ip), vehicle: saline with Tween-80) of the same molecule?
Its survivor count is 0 of 6.

What about the survivor count (dose: 240.0 mg/kg/injection, schedule: Q01DX005 (ip), vehicle: saline with Tween-80) of the same molecule?
Its survivor count is 0 of 6.
